Measurements: patent US9572855B2, “Combination anti-estrogen receptor cancer therapy using MUC1 peptides and chemotherapeutics” (DANA-FARBER CANCER INSTITUTE, INC., priority 2013, dated 2017)
pIC50: −log10 of the molar value.

Test system: BT-474/MUC1shRNA cells
Assay: cells
Details: Homo sapiens
Text: The multiple effect-level isobologram analyses are shown for the ED50 (X), ED75 (+) and ED90 (⊙) values.

pIC50: 4.78
Compound: CC/C(=C(\c1ccccc1)c1ccc(OCCN(C)C)cc1)c1ccccc1 [tamoxifen]
